According to the supplement of paper PMC11006884:
Most of the targets with a hit are listed elsewhere, so they are rarer here than in the full data. Single values of this set are uncertain. The entries are a selection whose mix differs from that of the whole data set.

By UniProt entry, the sequences of proteins in these tests, tags left out. Where a name states a change or a piece, a line headed by the entry shows the natural chain unless it says otherwise.
UniProt P84095: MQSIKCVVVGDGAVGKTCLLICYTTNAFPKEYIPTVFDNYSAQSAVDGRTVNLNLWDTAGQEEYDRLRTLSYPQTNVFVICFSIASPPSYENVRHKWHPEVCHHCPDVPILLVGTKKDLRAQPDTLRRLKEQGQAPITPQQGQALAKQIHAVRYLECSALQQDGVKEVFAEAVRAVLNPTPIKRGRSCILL
UniProt P78527, whole entry, looked up: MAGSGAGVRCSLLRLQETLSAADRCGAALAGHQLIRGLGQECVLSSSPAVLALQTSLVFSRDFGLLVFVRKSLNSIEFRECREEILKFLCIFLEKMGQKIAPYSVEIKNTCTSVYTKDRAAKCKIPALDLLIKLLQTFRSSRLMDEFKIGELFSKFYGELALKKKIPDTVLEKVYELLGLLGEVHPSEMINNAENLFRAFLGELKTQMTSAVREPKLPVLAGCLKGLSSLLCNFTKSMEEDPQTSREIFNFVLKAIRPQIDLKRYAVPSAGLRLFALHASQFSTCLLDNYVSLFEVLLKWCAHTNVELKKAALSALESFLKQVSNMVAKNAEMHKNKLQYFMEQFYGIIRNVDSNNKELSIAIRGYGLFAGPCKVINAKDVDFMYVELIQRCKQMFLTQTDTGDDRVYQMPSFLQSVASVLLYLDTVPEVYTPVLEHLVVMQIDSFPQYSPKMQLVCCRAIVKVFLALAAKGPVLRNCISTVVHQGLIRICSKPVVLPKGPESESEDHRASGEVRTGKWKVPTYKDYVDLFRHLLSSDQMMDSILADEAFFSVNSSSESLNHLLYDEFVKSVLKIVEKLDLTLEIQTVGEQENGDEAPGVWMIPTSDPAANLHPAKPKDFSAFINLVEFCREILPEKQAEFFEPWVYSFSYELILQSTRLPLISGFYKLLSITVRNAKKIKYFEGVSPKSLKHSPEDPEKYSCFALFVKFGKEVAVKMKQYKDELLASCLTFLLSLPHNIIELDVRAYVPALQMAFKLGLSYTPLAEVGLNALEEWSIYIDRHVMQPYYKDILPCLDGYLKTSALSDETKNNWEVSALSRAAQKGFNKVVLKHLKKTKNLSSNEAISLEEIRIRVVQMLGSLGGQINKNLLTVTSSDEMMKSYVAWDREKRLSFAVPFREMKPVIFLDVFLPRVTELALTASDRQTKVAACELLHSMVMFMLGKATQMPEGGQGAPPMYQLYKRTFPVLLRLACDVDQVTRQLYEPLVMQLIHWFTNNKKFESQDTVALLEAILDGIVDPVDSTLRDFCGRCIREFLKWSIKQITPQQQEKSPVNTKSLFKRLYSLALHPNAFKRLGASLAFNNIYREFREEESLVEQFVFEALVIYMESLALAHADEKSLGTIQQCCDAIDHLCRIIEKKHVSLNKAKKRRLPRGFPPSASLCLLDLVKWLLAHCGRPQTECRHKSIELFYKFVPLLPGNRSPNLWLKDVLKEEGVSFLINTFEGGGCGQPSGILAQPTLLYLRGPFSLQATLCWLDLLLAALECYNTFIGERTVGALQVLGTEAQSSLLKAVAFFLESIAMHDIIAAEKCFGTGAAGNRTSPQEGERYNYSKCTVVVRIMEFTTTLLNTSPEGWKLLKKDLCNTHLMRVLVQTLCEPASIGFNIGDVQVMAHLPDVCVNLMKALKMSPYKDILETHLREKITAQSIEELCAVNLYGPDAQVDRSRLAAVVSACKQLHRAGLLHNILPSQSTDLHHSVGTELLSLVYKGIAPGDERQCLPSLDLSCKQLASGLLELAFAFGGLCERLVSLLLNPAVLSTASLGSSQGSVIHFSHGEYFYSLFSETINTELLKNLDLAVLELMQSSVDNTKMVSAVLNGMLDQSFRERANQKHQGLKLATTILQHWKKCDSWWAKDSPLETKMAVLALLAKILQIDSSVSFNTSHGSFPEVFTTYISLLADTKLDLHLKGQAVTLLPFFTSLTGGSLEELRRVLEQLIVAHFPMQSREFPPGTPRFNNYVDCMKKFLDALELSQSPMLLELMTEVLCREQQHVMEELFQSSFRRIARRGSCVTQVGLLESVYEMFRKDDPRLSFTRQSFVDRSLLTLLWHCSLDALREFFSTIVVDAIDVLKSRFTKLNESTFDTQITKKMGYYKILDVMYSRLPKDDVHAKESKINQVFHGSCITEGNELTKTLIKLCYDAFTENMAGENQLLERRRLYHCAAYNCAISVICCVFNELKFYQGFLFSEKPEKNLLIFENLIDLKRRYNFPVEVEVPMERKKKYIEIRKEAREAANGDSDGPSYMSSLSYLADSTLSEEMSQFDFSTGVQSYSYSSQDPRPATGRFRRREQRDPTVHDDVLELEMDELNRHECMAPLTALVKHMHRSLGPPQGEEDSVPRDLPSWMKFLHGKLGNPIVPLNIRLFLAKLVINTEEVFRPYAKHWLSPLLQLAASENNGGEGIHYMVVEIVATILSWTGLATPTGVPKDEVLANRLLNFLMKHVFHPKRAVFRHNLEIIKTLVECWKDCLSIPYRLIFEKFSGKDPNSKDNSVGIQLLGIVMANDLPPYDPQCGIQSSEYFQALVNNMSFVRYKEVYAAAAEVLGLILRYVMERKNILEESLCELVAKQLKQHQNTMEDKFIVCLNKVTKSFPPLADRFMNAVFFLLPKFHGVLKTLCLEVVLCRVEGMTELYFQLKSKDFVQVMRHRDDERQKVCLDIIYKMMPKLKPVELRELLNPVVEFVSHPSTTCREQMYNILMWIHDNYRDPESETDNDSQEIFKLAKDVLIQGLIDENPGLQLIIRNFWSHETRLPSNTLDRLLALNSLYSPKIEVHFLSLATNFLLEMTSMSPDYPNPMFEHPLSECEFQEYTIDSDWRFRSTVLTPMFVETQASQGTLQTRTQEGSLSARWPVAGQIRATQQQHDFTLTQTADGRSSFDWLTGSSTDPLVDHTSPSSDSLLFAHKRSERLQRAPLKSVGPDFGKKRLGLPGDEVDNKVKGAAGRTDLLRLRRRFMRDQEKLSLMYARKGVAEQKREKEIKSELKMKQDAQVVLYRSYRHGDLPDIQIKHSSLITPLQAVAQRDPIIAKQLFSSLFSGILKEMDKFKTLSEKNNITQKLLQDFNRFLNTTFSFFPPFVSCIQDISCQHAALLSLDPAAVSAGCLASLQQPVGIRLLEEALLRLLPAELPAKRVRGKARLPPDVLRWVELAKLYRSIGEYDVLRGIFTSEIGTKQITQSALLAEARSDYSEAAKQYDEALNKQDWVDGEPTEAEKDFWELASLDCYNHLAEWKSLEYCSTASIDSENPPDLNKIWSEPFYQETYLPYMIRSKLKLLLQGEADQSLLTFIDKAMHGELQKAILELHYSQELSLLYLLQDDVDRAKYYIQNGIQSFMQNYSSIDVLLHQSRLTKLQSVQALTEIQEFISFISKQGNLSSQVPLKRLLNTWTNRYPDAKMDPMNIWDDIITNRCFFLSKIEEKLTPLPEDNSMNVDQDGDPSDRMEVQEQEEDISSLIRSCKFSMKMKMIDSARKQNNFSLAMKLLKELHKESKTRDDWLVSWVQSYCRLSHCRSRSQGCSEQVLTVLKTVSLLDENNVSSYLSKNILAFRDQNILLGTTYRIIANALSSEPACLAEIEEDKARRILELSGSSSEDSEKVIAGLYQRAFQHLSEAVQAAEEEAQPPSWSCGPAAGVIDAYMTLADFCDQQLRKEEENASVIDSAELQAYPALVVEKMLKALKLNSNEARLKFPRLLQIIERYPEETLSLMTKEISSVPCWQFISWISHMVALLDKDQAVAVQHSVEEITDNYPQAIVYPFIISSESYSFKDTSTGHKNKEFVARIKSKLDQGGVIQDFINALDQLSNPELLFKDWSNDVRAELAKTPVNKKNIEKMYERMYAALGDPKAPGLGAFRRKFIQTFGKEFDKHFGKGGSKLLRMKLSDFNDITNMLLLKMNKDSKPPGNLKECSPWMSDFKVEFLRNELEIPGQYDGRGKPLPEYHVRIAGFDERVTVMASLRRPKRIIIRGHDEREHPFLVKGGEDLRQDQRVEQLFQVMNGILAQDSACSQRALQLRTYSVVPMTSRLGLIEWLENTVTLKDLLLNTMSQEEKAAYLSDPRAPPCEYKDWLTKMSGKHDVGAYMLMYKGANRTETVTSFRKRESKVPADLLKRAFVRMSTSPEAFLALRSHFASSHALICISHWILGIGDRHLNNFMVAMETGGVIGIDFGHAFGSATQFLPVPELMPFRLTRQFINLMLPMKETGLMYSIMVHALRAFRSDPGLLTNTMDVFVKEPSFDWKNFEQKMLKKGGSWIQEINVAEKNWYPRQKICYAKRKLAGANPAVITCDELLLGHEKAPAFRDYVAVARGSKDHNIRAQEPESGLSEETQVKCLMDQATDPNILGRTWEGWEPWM
UniProt P78371: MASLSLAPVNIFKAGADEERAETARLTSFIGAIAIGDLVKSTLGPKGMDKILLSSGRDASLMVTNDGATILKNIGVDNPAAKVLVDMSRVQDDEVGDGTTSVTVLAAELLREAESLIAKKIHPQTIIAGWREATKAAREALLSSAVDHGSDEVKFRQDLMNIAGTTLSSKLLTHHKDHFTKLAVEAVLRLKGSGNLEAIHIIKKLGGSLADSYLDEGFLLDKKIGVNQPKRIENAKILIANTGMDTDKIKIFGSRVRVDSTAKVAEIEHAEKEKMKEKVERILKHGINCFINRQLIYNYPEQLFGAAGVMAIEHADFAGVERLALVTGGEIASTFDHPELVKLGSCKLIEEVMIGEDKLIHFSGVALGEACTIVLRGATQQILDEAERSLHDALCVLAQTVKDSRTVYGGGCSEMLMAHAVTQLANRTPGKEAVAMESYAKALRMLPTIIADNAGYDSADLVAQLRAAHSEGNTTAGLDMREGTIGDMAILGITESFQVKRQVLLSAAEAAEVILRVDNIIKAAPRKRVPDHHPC
UniProt P85037: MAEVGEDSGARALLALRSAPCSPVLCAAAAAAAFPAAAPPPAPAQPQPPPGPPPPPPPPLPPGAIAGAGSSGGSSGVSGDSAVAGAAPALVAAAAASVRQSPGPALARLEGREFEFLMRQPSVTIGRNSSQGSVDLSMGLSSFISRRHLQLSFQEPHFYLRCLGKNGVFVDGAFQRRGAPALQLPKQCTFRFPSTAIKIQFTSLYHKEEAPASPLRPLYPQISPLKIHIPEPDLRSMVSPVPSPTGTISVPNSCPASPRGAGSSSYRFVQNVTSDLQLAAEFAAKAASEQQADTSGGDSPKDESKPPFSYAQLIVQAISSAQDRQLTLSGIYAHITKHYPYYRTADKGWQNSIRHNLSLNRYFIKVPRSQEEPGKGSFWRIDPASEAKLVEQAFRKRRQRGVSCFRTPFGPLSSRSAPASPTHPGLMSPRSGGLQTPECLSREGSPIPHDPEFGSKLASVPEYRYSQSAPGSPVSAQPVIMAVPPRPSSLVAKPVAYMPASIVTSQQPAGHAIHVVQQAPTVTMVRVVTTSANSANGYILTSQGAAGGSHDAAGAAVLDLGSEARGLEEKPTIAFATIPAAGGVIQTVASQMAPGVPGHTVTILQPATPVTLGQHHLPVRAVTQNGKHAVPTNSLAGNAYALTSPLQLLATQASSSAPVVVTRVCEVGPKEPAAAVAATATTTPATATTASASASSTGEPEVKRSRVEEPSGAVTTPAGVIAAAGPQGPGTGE
UniProt Q02241: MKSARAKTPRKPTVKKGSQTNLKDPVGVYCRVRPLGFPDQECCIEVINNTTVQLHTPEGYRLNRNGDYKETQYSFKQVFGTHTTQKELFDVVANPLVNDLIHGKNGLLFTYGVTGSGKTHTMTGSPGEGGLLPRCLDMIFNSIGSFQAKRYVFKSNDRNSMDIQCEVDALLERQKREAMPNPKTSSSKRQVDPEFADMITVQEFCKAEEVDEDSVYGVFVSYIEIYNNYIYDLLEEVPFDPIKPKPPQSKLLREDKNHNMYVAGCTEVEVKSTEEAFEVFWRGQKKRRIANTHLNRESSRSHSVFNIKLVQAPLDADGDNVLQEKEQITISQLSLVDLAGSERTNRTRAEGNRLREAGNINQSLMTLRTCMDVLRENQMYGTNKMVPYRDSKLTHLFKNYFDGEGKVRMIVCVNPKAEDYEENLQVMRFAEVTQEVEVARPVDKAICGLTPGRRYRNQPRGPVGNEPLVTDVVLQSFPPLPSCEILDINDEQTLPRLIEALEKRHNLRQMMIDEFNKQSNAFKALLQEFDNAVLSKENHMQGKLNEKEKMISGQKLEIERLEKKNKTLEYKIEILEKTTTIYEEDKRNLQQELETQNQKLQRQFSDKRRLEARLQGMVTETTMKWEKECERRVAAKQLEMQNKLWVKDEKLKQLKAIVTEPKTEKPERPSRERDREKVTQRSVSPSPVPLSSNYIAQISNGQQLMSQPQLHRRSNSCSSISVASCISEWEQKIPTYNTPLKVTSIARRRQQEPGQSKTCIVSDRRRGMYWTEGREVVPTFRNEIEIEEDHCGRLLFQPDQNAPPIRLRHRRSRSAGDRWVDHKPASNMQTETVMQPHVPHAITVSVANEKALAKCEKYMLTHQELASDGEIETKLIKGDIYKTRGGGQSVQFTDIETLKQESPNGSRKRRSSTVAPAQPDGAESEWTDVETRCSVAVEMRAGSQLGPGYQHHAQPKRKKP

The targets below were run with COC(=O)/C=C/c1ccccc1 [methyl cinnamate] (assay: log2 ratio of iodoacetamide-alkyne labeling of the cysteine site, DMSO over compound (competition); higher = stronger covalent engagement of the cysteine by the compound, active = 1 or more). Conditions: 500 µM; treatment time 1 h; system: HEK293T cell lysate.
Summary of the method: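 After 1 h at ambient temperature with vehicle or electrophile (500 µM), HEK293T lysate (2 mg/mL) was labelled for 1 h with iodoacetamide alkyne and clicked to sCIP-TMT reagents. Pooled samples were trypsin-digested overnight at 37 °C, streptavidin-enriched, acid-eluted and analysed by Orbitrap Eclipse LC-MS/MS with FAIMS, then quantified in FragPipe over three replicates with duplicate channels. A cysteine's log2 competition ratio is its mean control-channel over mean compound-channel reporter intensity. Cysteines quantified in only one replicate were not included.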

log2 ratio of iodoacetamide-alkyne labeling, inactive:
CNBP C171 (UniProt P62633) -0.00835
UniProt P83731_C36 0.35
FABP5 C120 (UniProt Q01469) -0.055
UniProt P62304_C46 0.207
UniProt Q02040_C579 0.543
UniProt P84095_C157 0.119
UniProt P78527_C931 -0.0513
CCT2 C412 (UniProt P78371) 0.00154
UniProt P62917_C90 -0.291
CCT2 C535 (UniProt P78371) 0.0134
CLTC C753 (UniProt Q00610) 0.096
UniProt P78527_C630 0.338
RPS27A C149 (UniProt P62979) 0.237
RPL18A C137 (UniProt Q02543) 0.216
EXOSC10 C612 (UniProt Q01780) 0.0177
UniProt P78527_C1919 0.174
FOXK1 C254 (UniProt P85037) 0.327
SPTBN1 C604 (UniProt Q01082) 0.315
GTF2B C15 (UniProt Q00403) 0.0157
CCT2 C395 (UniProt P78371) 0.0823
SORD C45 (UniProt Q00796) 0.0198
UniProt P62701_C124 0.187
MRPS9 C353 (UniProt P82933) 0.201
CNBP C161 (UniProt P62633) -0.00608
P86790_C65 (UniProt P86791+P86790) 0.186
KIF23 C165 (UniProt Q02241) 0.114
PFKP C411 (UniProt Q01813) -0.0345
XIAP C12 (UniProt P98170) 0.256
UniProt P62913_C21 0.124
EIF4G2 C253 (UniProt P78344) 0.156
UniProt P84090_C28 0.117
KIF23 C135 (UniProt Q02241) 0.604
PFKP C343 (UniProt Q01813) -0.117
RPS27A C121 (UniProt P62979) 0.0802
MPP1 C454 (UniProt Q00013) -0.0856
GALK2 C407 (UniProt Q01415) 0.293
UniProt P62263_C31 -0.189

3 records drawn at random from the list so far:
log2 ratio of iodoacetamide-alkyne labeling, inactive:
UniProt P84095_C157 0.119
KIF23 C165 (UniProt Q02241) 0.114
CLTC C753 (UniProt Q00610) 0.096
